Reference: PMC12040169 (PLOS Biology, 2025)
Some of the results follow.

The molecules below were run on T1, CTL2-GFP (C. trachomatis L2/434/Bu, GFP-expressing). Details: bulk GFP, single well; 28.5 h, 10 µM; inhibitor.
T1 construct: L2/434/Bu, GFP-expressing
Set-up: species or system HeLa; Intracellular C. trachomatis growth in HeLa cells, bulk GFP fluorescence relative to DMSO

| Structure (SMILES) | % of control remaining |
| --- | --- |
| Cc1c(C(=O)N2CCC(C(=O)c3cccnc3)CC2)oc2ccccc12 [CBK283954] | 123.258% |
| O=C(NCCO)Nc1ccc2nccnc2c1 [CBK027577] | 100% |
| CSc1nnc2n3ncnc3c3c4c(sc3n12)CCCC4C (stereo not drawn) [CBK288542] | 122.84% |
| CCc1nc2ccc(C(=O)NCc3ccc4c(c3)OCO4)cn2c1N(CCN(C)C)CC1CC1 [CBK145472] | 194.247% |
| O=C(NC(=S)Nc1ccc(-c2nc3ccccc3o2)c(O)c1)c1cncc(Br)c1 [CBK264931] | 100% |
| Cc1cc(C)nc(SCC(=O)Nc2ccc(C(=O)O)cc2)n1 [CBK263223] | 106.194% |
| CS(=O)(=O)c1ccc(-n2nnnc2CN2CCC3(CCCCC3)C2)cc1 [CBK306183] | 131.174% |
| COc1cnn(-c2ccccc2)c(=O)c1N(C)C [CBK020317] | 118.937% |
| Cc1ccccc1-c1ccccc1CC1(C(N)=O)CCN(C(=O)c2ccccc2)CC1 [CBK285721] | 111.02% |
| Cc1nc(C)n(C(C)CNC(=O)Cn2ccc3ccc(F)cc32)n1 (stereo not drawn) [CBK282612] | 109.516% |
| O=[N+]([O-])c1ccccc1S(=O)(=O)N1CCN(C2CCCCCC2)CC1 [CBK264171G] | 138.6% |
| O=C1CCCN1CCOc1nccnc1-c1cc2ccccc2s1 [CBK106780] | 100% |
| Cc1cc2cc(C(=O)NCCCN3Cc4ccccc4C3)ccc2o1 [CBK282624] | 139.52% |
| CCN1CCc2nc(NC(=O)Cc3cn4ccsc4n3)sc2C1 [CBK304534] | 116.344% |
| COc1cccc(CN2CCC3(C/C=C/COc4ccccc4C(=O)NCCNC3=O)CC2)c1F [CBK292025] | 137.394% |
| Brc1cn2ccnc2c(NCc2ccccn2)n1 [CBK038024] | 186.319% |
| O=C(O)CSc1cccc([N+](=O)[O-])c1 [CBK110160] | 76.6559% |
| CSc1nc(-n2nc(C)cc2C)c2c3c(sc2n1)COC(C)(C)C3 [CBK268906] | 135.445% |
| Cc1cc(Cl)ccc1OCCCc1nnc(S)n1C [CBK288396] | 120.721% |
| Cc1cccc(C2(O)CCN(C(=O)c3ccc4nc(C)[nH]c4c3)CC2)c1 [CBK283299] | 140.47% |
| CCCCN1CC(C(=O)Nc2nccs2)CC1=O (stereo not drawn) [CBK288224] | 109.566% |
| CCNC(=O)Nc1cc2ccccc2c(-c2ccc(F)cc2OC)n1 [CBK085731] | 122.886% |
| O=C(NC1CC1)[C@@H]1C=CCN1S(=O)(=O)c1ccc(F)cc1 [CBK284294] | 101.916% |
| Cc1cccc(/N=C2\NC(=O)C(Cc3ccc(C)c(Cl)c3)S2)n1 (stereo not drawn) [CBK265597] | 109.89% |
| COc1ccc2c(c1)C(=O)CC1(CCN(C(=O)/C=C/c3ccc(C)cc3)CC1)O2 [CBK156438] | 105.043% |
| CCC(C(=O)O)N1C(=O)C(=Cc2ccc(-c3ccccc3C(F)(F)F)o2)SC1=S (stereo not drawn) [CBK296985] | 131.493% |

Structures listed so far that contain a thiophene ring, fused or not, in the order listed:

| Structure (SMILES) | % of control remaining |
| --- | --- |
| CSc1nnc2n3ncnc3c3c4c(sc3n12)CCCC4C (stereo not drawn) [CBK288542] | 122.84% |
| O=C1CCCN1CCOc1nccnc1-c1cc2ccccc2s1 [CBK106780] | 100% |
| CSc1nc(-n2nc(C)cc2C)c2c3c(sc2n1)COC(C)(C)C3 [CBK268906] | 135.445% |

Continued:

| Structure (SMILES) | % of control remaining |
| --- | --- |
| COc1ccc(OCCN2CCC(C(=O)NC(c3ccccn3)c3ccccc3OC)CC2)cc1 (stereo not drawn) [CBK147938] | 100.419% |
| C#CCNC(=O)C1CCN(c2nc3ccccc3n2CC)CC1 [CBK283923] | 107.029% |
| C[C@@H]1C[C@H](C(F)(F)F)n2nc(C3CCCN3C(=O)C3CC3)cc2N1 (stereo partly drawn) [CBK285432] | 114.756% |
| COc1ccc(C(NC(=O)Cc2ccc(-n3nnnc3C)cc2)c2ccccc2)cc1 (stereo not drawn) [CBK285537] | 125.926% |
| COc1ccc(N2CCN(Cc3nc4c(c(=O)n(C)c(=O)n4C)n3CC(C)=O)CC2)cc1 [CBK269465] | 72.704% |
| Cc1cnc(CNS(=O)(=O)c2cnn(-c3ccccc3)c2C)cn1 [CBK062335] | 115.991% |
| CCn1c2ccccc2c2cc(CN3CCN(Cc4cc(OC)cc(OC)c4)CC3)ccc21 [CBK263164] | 100% |
| NC(=O)C1(Cc2cccc(-c3cccs3)c2)CCN(C(=O)Cc2cccc(F)c2)CC1 [CBK285783] | 147.487% |
| O=C1S/C(=C\c2ccc(F)c(Br)c2)C(=O)N1c1cccc(Cl)c1 [CBK095450] | 111.678% |
| COc1ncc(-c2nccnc2OCc2ccccc2)c(OC)n1 [CBK106748] | 100.105% |
| Cc1nc2c(C(=O)NCCC3OCCO3)cnn2c(C)c1Cc1cccnc1 [CBK162159] | 130.709% |
| CCOC(=O)c1cnc2c(C)c(Cl)ccc2c1NCCCN1CCOCC1 [CBK265296] | 115.572% |
| COc1c(C(=O)O)cc(C)c2c1CCC2C (stereo not drawn) [CBK013617] | 128.855% |
| CCOc1ccc(N(CCC#N)C(=O)Cn2nc(C(=O)O)c3ccccc3c2=O)cc1 [CBK297502] | 163.74% |
| N#Cc1cccc(Cn2cc(NC(=O)NCCc3cccs3)cn2)c1 [CBK043824] | 86.2542% |
| CCCc1n[nH]c(C(C)C)c1C(=O)OCC [CBK115724] | 107.391% |
| CCN(CC)C(=O)CN1CCC(Oc2nccnc2OCc2cc(C)on2)CC1 [CBK082959T] | 102.11% |
| CN(CCc1cn[nH]c1)C(=O)CCc1ccc(Cl)cc1 [CBK283183] | 89.6066% |
| O=C(O)CCC(=O)Nc1ccc(C(=O)O)cc1 [CBK260952] | 100% |
| CCOC(=O)N/N=C(/C)c1ccc(Br)s1 [CBK019480] | 135.149% |
| Clc1ccc(-n2c(COc3cccc4cccnc34)nnc2SCc2ccccc2)cc1 [CBK268502] | 121.207% |
| Cc1cc(NC(=O)CN2CCN(Cc3ccccc3C#N)CC2)no1 [CBK305644] | 138.512% |
| Cn1cccc1C(=O)N[C@H]1C[C@H]2C(=O)Nc3cc(Cl)ccc3C(=O)N2C1 [CBK289364] | 122.718% |
| COC(=O)c1ccc(CC(C)C)nc1SC1=NCCCN1 [CBK005294C] | 129.666% |
| Cc1noc(C)c1C(=O)N[C@H]1CO[C@H]2[C@@H]1OC[C@H]2OCc1ccccc1 [CBK289458] | 99.578% |
